This experiment deals with T1, Myc-RARγ (full-length RARγ in pCMV-Myc) (UniProt P13631).
T1 sequence: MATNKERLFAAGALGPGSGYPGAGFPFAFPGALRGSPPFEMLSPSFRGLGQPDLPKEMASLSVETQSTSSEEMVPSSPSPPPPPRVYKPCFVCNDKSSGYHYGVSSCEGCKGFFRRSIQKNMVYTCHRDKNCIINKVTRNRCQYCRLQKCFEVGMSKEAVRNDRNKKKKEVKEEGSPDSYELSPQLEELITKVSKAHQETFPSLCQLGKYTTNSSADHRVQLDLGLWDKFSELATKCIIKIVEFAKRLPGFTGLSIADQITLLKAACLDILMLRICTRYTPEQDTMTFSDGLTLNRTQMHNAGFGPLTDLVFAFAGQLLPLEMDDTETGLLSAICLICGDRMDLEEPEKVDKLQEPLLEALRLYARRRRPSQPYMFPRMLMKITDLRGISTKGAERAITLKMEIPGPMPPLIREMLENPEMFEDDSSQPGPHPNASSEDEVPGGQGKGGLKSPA
Description: co-IP; HEK293 cells transfected with Myc-RARγ and Flag-FBXO30 or Flag-tagged FBXO30 truncates; immunoprecipitated with anti-Myc, blotted with anti-Flag and anti-Myc.

Results are given in words; binding and its absence hold for the method and conditions named. Binding seen in cells or lysates may run through a third protein. Some results given as binding are weak or reduced against the parent protein; the word gives no strength. Tags and fused reporters may be left off the sequences shown.

B1: FBXO30-F-box (110–745), Flag-tagged (domain or fragment, UniProt Q8TB52 110-745)
chain: LSRDVDEVAQLDMALALQDQRMLLESLKVATMMSKATDKVSKPREQISVKSSVPEIPHANGLVSVDEESYGALYQATVETTRSLAAALDILNTATRDIGMLNTSVPNDMDEQQNARESLEDQNLKDQDHLYEEEIGAVGGIDYNDTNQNAQSEQNGSSDLLCDLNTSSYDTSALCNGFPLENICTQVIDQNQNLHGDSKQSNLTNGDCVASSDGTSKPSSSLAVAAQLREIIPSSALPNGTVQHILMPDDEGEGELCWKKVDLGDVKNVDVLSFSHAPSFNFLSNSCWSKPKEDKAVDTSDLEVAEDPMGLQGIDLITAALLFCLGDSPGGRGISDSRMADIYHIDVGTQTFSLPSAILATSTMVGEIASASACDHANPQLSNPSPFQTLGLDLVLECVARYQPKQRSMFTFVCGQLFRRKEFSSHFKNVHGDIHAGLNGWMEQRCPLAYYGCTYSQRRFCPSIQGAKIIHDRHLRSFGVQPCVSTVLVEPARNCVLGLHNDHLSSLPFEVLQHIAGFLDGFSLCQLSCVSKLMRDVCGSLLQSRGMVILQWGKRKYPEGNSSWQIKEKVWRFSTAFCSVNEWKFADILSMADHLKKCSYNVVEKREEAIPLPCMCVTRELTKEGRSLRSVLKPVL
In the case of B1, the binding entry is given as “binds”.

These data come from paper PMC6639381.
